Results taken from paper PMC3519819.
These are yes or no findings as the source states them, for the method shown. Binding seen in cells or lysates may run through a third protein. Some entries that bind do so weakly or less than the wild type. Where a sequence is shown, tags or fusion partners need not be part of it.

Amino acid sequences for entries named in this document (tags omitted).
UniProt P0A6B7: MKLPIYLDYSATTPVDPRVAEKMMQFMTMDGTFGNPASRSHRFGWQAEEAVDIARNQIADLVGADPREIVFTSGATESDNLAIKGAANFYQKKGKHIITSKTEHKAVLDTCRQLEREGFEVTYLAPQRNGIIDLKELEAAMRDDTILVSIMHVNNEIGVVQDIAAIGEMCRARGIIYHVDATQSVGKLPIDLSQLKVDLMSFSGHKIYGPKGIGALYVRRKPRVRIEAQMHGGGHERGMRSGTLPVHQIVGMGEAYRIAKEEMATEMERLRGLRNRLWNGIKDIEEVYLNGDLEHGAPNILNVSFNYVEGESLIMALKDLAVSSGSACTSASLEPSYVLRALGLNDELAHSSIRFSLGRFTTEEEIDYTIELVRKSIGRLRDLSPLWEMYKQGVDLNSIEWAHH

Key:
[1] = molecular target: Strep tagged IscS (E. coli), P0A6B7; experiment: pull-down; Cell extracts of Strep-IscS and GST-DptC or GST-DptE mixed in equal volume, Streptactin resin, Buffer S (25 mM Hepes pH7.6, 100 mM KCl, 10% glycerol), 1 hour, eluted with 2.5 mM desthiobiotin; Western blot against GST; conditions: remark: other sources report otherwise
[2] = molecular target: Strep tagged IscS (E. coli) (UniProt P0A6B7); experiment: as above

Binder | binding [1] | binding [2]
GST tagged DptC, E2D677 1-544 (protein) MSKLVQAYDLAEYEDFINQEQFAGRPLAEYVAEVQRIYCADKRPWVIGYSGGKDSSAVITLVYLALLGLPPEMRSKDVFIVSSDTLVETPVVVDLIKKTMLQIEAGAKRNGLPITQHAVTPKTNETFWVNLLGKGYPAPTRSFRWCTERMKINPVSDFIKDKVSQFDEVIVVLGSRSSESASRAQVIAKHKIDGSRLARHTTLANAFIYTPIDTWDVEDVWKLLRGAFRYAPEDIDEWESPWGGNNRPLWTLYMDSSAQGECPLVIDESTPSCGNSRFGCWTCTVVTKDKAMESLIKNGEEWMSPLLKYRDLLAFTTDPANKDTYRNYKRRTGKVSYQYAKDGEDRSAERKHVPGPYWLKYRQQWLKDLLEIERDLNAQGHTITLITQPELHAIRQEWLKDPNEPDWHDTLPEIYREVYQQDLNWVVDDQSRFDASDADLLAQITQGFDVVPEMVMKLIELETSMEGLSRRQGIFDKLGTILKQDWGSLEEIQQQQATLQKRNDRDIHQDEVEKLEAELQTLQRRIIDAGESSVLIDEENERAH | binds | –
GST tagged DptE (protein, UniProt E2D679 1-117) MLPNRMVLSRQTEDQLKKLKGYTGITPNVAARLAFFRSVESEFRYSPERDSKKLDGSLVLDKITWLGETLQATELVLKMLYPQLEQKILIKAWAAHVDDGIAALRNYRSLKDFSKNI | – | binds
